Results as given in US20220242957A1.
These are yes or no findings as the source states them, for the method shown. Some entries that bind do so weakly or less than the wild type.

Sequences of proteins named here, by UniProt entry; tags and fusion partners are left off. A change or cut given only in a name is not applied to a line headed by its entry.
UniProt P51683: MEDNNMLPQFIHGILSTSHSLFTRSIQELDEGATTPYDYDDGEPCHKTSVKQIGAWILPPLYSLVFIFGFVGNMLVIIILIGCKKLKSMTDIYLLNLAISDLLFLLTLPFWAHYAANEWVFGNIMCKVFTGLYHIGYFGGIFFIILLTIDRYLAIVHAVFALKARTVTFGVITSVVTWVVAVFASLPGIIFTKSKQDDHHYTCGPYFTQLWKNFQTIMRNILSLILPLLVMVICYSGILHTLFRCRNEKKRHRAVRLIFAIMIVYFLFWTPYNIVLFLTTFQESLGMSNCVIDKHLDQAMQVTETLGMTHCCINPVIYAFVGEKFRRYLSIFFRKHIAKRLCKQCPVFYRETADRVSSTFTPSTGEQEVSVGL
UniProt P09581: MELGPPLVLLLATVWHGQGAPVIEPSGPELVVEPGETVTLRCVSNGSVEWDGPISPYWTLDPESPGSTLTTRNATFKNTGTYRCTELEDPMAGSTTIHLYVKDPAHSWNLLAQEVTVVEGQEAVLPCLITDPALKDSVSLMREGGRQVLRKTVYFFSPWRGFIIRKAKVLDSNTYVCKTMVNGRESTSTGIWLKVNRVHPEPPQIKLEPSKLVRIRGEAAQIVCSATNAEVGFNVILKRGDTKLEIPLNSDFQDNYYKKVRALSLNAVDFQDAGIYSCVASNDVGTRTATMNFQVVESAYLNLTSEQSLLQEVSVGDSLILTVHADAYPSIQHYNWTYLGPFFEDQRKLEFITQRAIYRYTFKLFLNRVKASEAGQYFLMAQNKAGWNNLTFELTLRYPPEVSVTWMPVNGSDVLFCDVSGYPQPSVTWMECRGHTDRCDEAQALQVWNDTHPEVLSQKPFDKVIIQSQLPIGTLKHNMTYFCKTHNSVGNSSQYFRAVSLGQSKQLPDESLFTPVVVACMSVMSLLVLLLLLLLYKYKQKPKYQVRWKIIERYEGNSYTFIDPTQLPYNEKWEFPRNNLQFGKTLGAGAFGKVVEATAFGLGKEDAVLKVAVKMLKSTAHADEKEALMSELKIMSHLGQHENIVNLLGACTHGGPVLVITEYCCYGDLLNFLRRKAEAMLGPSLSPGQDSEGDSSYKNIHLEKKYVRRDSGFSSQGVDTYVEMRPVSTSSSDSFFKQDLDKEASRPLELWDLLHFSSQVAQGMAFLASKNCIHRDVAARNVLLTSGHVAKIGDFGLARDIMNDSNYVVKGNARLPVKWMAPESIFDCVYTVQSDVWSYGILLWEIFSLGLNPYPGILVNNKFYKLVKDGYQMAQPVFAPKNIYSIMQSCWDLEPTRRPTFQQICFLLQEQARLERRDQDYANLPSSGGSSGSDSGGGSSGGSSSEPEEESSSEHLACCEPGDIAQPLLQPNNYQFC

Molecular target: mouse CCR2 and mouse CSF1R, both expressed on the same ExpiCHO cells (mouse) (UniProt P51683+P09581)
Assay: flow cytometry on transiently transfected ExpiCHO cells

binding: binds
B1: UniTI-01 (multispecific molecule #1, anti-CCR2/anti-CSF1R bispecific antibody) (bispecific antibody)
heavy 1: QVQLQESGPGLVQPSQTLSLTCTVSGFSLTDFSVHWVRQPPGKGLEWMGRIRSEGNTDYNSALKSRLSISRDTSKSQVFLKMNSLQTEDTAIYFCTRGDILGFGYWGQGVMVTVSSAQTTAPSVYPLAPGCGDTTSSTVTLGCLVKGYFPEPVTVTWNSGALSSDVHTFPAVLQSGLYTLTSSVTSSTWPSQTVTCNVAHPASSTKVDKKVERRTIKPCPPCKCPAPNLLGGPSVFIFPPKIKDVLMISLSPIVTCVVVDVSEDDPDVQISWFVNNVEVHTAQTQTHREDYNSTLRVVSALPIQHQDWMSGKEFKCKVNNKDLPAPIERTISKPKGSVRAPQVYVLPPCEEEMTKKQVTLWCMVTDFMPEDIYVEWTNNGKTELNYKNTEPVLDSDGSYFMYSKLRVEKKNWVERNSYSCSVVHEGLHNHHTTKSFSRTPGK
light 1: DIVMTQSPLSVSVTPGESASISCRSSKSLLHFKGITFVYWYLQKPGQSPQLLIFRMSSLASGVPDRFSGSGSETDFTLKISRVEAEDVGTYYCGQLLENPYTFGAGTKLELKRADAAPTVSIFPPSMEQLTSGGATVVCFVNNFYPRDISVKWKIDGSEQRDGVLDSVTDQDSKDSTYSMSSTLSLTKVEYERHNLYTCEVVHKTSSSPVVKSFNRNEC
heavy 2: QVQLQQSGAELVKPGSSVKISCKASGYTFTSNFMHWIKQQPGNGLEWIGWIYPGDGDTEYNQKFNGKATLTADKSSSTAYMQLSSLTSEDSAVYFCAVNYGGYVLDAWGQGASVTVSSAETTAPSVYPLAPGTALKSNSMVTLGCLVKGYFPEPVTVTWNSGALSSGVHTFPAVLQSGLYTLTSSVTVPSSTWSSQAVTCNVAHPASSTKVDKKIVPRECNTIKPCPPCKCPAPNLLGGPSVFIFPPKIKDVLMISLSPIVTCVVVDVSEDDPDVQISWFVNNVEVHTAQTQTHREDYNSTLRVVSALPIQHQDWMSGKEFKCKVNNKDLPAPIERTISKPKGSVRAPQVCVLPPPEEEMTKKQVTLSCAVTDFMPEDIYVEWTNNGKTELNYKNTEPVLDSDGSYFMVSKLRVEKKNWVERNSYSCSVVHEGLHNHHTTKSFSRTPGK
light 2: EIVLTQSPTTMAASPGEKVTITCRASSSTNYMSWYQQKSGASPKPWIYETSKLASGVPDRFSGSGSGTSYSFTISSMETEDAATYYCHQWSSTPLTFGSGTKLEIKRADAAPTVSIFPPSMEQLTSGGATVVCFVNNFYPRDISVKWKIDGSEQRDGVLDSVTDQDSKDSTYSMSSTLSLTKVEYERHNLYTCEVVHKTSSSPVVKSFNRNEC
